# Measurements from paper doi:10.1101/2025.02.27.640524 (bioRxiv, 2025).
# Amino acid sequences for entries named in this document (tags omitted).
# UniProt C8VTS4, whole entry: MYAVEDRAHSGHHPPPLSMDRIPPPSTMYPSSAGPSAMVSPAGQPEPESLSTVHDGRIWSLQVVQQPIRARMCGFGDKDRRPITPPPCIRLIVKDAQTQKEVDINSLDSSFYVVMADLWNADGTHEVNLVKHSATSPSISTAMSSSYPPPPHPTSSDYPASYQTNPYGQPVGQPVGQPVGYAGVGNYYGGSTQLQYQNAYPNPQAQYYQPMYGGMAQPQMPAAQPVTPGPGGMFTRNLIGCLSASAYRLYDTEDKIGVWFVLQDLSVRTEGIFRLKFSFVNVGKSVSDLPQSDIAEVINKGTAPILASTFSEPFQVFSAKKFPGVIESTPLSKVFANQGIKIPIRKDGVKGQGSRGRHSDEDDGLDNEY
# Biological target: VelB-GFP (full length A. nidulans Velvet-like B fused to GFP) (Aspergillus nidulans) (UniProt C8VTS4)
# Experiment: affinity purification with mass spectrometry
row,Binder,binding
1,"Velvet A (VeA), A. nidulans, endogenous (protein, UniProt C8VTV4 1-573) MATLAAPPPPLGESGNSNSVSRITREGKKITYKLNIMQQPKRARACGQGSKSHTDRRPVDPPPVIELNIFESDPHDDSNKTDITFVYNANFFLFATLEPERPIATGKLMTNQGSPVLTGVPVAGVAYLDKPNRAGYFIFPDLSVRNEGSYRFSFHLFEQIKDPKDATEGTQPMPSPVPGKLSSPQEFLEFRLEVISNPFIVYSAKKFPGLTTSTPISRMIAEQGCRVRIRRDVRMRRRGDKRTEDYDYDNERGYNNRRPDQYAGSDAYANAPERPRSTSISTNMDPYSYPSRRPSAVEYGQPIAQPYQRPMASTPAPSSTPIPAPIPMPGPVALPPSTPSPASAHAPAPPSVPLAAPPPLHTPSYQSHLSFGATQTQYPAPQLSHIPQQTTTPTHPYSPRSSISHSRNQSISEYEPSMGYPGSQTRLSAERPSYGQPSQTTSLPPLRHSLEPSVNSRSKTPSNMITSLPPIQSLSELPSTTSQPSSAIGSSPANEPGPRLWETNSMLSKRTYEESFGHDDRPLYNGMRPDSESYPGGMQRRPSYERSSLLDGPDQMAYKRANGRMVSKPATMR",binds
2,"catalase CatB, A. nidulans, endogenous (enzyme, UniProt P78619 16-722) VCPYMTGELGRRDTNPDATEATEEFLSEYYLDDTDSYLTTDVGGPIEDQQSLKAGARGSTLLEDFIFRQKIQRFDHERVPERAVHARGAGAHGVFTSYGDFSNITAASFLSAEGKETPVFVRFSTVAGSRGSSDLARDVHGFATRFYTDEGNFDIVGNNIPVFFIQDAIQFPDLIHAVKPKGDREIPQAATAHDAAWDFFSQQPSTLHTLLWAMAGHGIPRSFRHVDGFGVHTFRLVTEDGSTKLVKFHWKTLQGLASMVWEEAQQISGKNPDYMRQDLFESIEAGRYPEWELNVQIMDEEDQLRFGFDLFDPTKIVPEEYVPLTPLGKMTLNRNPRNYFAETEQVMFQPGHVVRGVDFTEDPLLQQGRLFSYLDTQLNRNGGPNFEQLPINQPRVAIHNNNRDGAGQMFIPLNPDAYSPNTLKGSTLKQANQTAGRGFFTAPDRTANGNLVRAKSSTFDDAWSQPRLFWNSLLPAEKQFVVNAIRFENANVKSDVVKNNVIVQLNRISNDLATRVAKAIGVDAPEPDNTYYHDNTTSNIGAFGHRLQSLAGLKIAVLASVDAEESFSAATALKAELSNDNLDVIVVAERFSNGVNQTYSASDAIQFDAVVVAPGAEKLFGAKSAANSSSTLYPAGRPLEILVDAFRFGKPVAALGSGSTAFDNAGINTAVEGVYVADAVDESFANNLEEGLTVFKFLDRFALDSDE",binds

# These are yes or no findings as the source states them, for the method shown. In cells and extracts the contact can be indirect. A yes stands for co-enrichment or nearness to the bait. Other partners may have been found.
